PubChem BioAssay AID1259254, NCATS – 2017
Test: 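Gene knock-downs that lead to re-replication, shown by excess G2 DNA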 (primary screen). Cell system: human HCT116 colorectal cancer cells. Reagent: single siRNA against human genes. Time to read-out: 3 days. Measured: 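Imaged Hoechst DNA stain sorts each cell into a cycle phase by DNA amount; per plate, G2 fraction set to 0% for non-targeting and 100% for GMNN siRNA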. Scale: G2 robust z-score and G2 cells, % of GMNN control: higher = more G2 cells, more excess DNA replication. Rule for the call: 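An siRNA counts as active if its G2 robust z-score lies at least 5 MADs above the screen median; here such calls match roughly 38% of GMNN control or more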.
In all, the deposit lists about 59,000 reagents; below is a random part of them. In the full data, about 1,550 (2.6%) got an active call. 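G2 share is only a proxy for re-replication; each gene was hit by three separate siRNAs, and active genes were retested.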 Further read-outs or replicates are left out here. No sequences are given here. Not given: the amount of reagent.

| target | PubChem SID | G2 robust z-score | G2 cells, % of GMNN control | activity call |
| --- | --- | --- | --- | --- |
| SUPT20H (SPT20 homolog, SAGA complex component) | SID160743829 | 0.553 | 6.86 | inactive |
| SUPT20H (SPT20 homolog, SAGA complex component) | SID160743830 | -0.703 | -1.98 | inactive |
| SUPT20H (SPT20 homolog, SAGA complex component) | SID160743831 | 4.76 | 36.5 | inactive |
| SLC5A3 | SID160716842 | 0.658 | 7.6 | inactive |
| SLC5A3 | SID160716843 | -0.362 | 0.42 | inactive |
| SLC5A3 | SID160716844 | -0.0248 | 2.79 | inactive |
| MYLK4 (myosin light chain kinase family member 4) | SID160764376 | -0.073 | 2.45 | inactive |
| MYLK4 (myosin light chain kinase family member 4) | SID160764377 | 0.116 | 3.78 | inactive |
| MYLK4 (myosin light chain kinase family member 4) | SID160764378 | 0.323 | 5.24 | inactive |
| ZNF133 (zinc finger protein 133) | SID160719152 | -0.997 | -4.04 | inactive |
| ZNF133 (zinc finger protein 133) | SID160719153 | 0.649 | 7.53 | inactive |
| ZNF133 (zinc finger protein 133) | SID160719154 | -0.369 | 0.374 | inactive |
| OR5K3 (olfactory receptor family 5 subfamily K member 3) | SID160767489 | 1.96 | 16.8 | inactive |
| OR5K3 (olfactory receptor family 5 subfamily K member 3) | SID160767490 | 0.679 | 7.75 | inactive |
| OR5K3 (olfactory receptor family 5 subfamily K member 3) | SID160767491 | 0.343 | 5.38 | inactive |
| EVPL (envoplakin) | SID160730775 | 0.084 | 3.56 | inactive |
| EVPL (envoplakin) | SID160762478 | 1.3 | 12.1 | inactive |
| EVPL (envoplakin) | SID160762497 | 2.5 | 20.6 | inactive |
| KRTAP1-1 (keratin associated protein 1-1) | SID160735014 | 0.967 | 9.77 | inactive |
| KRTAP1-1 (keratin associated protein 1-1) | SID160751025 | 1.83 | 15.9 | inactive |
| KRTAP1-1 (keratin associated protein 1-1) | SID160751026 | -1.1 | -4.74 | inactive |
| BTF3L4P2 (basic transcription factor 3 like 4 pseudogene 2) | SID160734172 | 3.1 | 24.8 | inactive |
| BTF3L4P2 (basic transcription factor 3 like 4 pseudogene 2) | SID160770951 | -0.269 | 1.07 | inactive |
| BTF3L4P2 (basic transcription factor 3 like 4 pseudogene 2) | SID160770952 | -0.572 | -1.06 | inactive |
| NSUN6 (NOP2/Sun RNA methyltransferase 6) | SID160761593 | -0.224 | 1.39 | inactive |
| NSUN6 (NOP2/Sun RNA methyltransferase 6) | SID160761594 | 1.22 | 11.6 | inactive |
| NSUN6 (NOP2/Sun RNA methyltransferase 6) | SID160761595 | -0.877 | -3.2 | inactive |
| GALNT2 (polypeptide N-acetylgalactosaminyltransferase 2) | SID160769084 | -0.0165 | 2.85 | inactive |
| GALNT2 (polypeptide N-acetylgalactosaminyltransferase 2) | SID160769094 | 2.38 | 19.7 | inactive |
| GALNT2 (polypeptide N-acetylgalactosaminyltransferase 2) | SID160769104 | -0.0636 | 2.52 | inactive |
| C1orf56 (chromosome 1 open reading frame 56) | SID160742617 | -1.06 | -4.5 | inactive |
| C1orf56 (chromosome 1 open reading frame 56) | SID160742619 | 0.13 | 3.88 | inactive |
| C1orf56 (chromosome 1 open reading frame 56) | SID160742620 | 1.02 | 10.2 | inactive |
| R3HCC1L (R3H domain and coiled-coil containing 1 like) | SID160738660 | -0.527 | -0.744 | inactive |
| R3HCC1L (R3H domain and coiled-coil containing 1 like) | SID160738661 | 0.0233 | 3.13 | inactive |
| R3HCC1L (R3H domain and coiled-coil containing 1 like) | SID160738662 | -0.704 | -1.99 | inactive |
| TASP1 (taspase 1) | SID160733614 | -0.323 | 0.693 | inactive |
| TASP1 (taspase 1) | SID160743911 | -0.529 | -0.753 | inactive |
| TASP1 (taspase 1) | SID160743912 | 0.656 | 7.58 | inactive |
| ECPAS (Ecm29 proteasome adaptor and scaffold) | SID160736179 | -1.42 | -7 | inactive |
| ECPAS (Ecm29 proteasome adaptor and scaffold) | SID160736180 | 0.0701 | 3.46 | inactive |
| ECPAS (Ecm29 proteasome adaptor and scaffold) | SID160736181 | 0.125 | 3.85 | inactive |
| ACIN1 (apoptotic chromatin condensation inducer 1) | SID160734488 | 3.2 | 25.5 | inactive |
| ACIN1 (apoptotic chromatin condensation inducer 1) | SID160734497 | 0.169 | 4.15 | inactive |
| ACIN1 (apoptotic chromatin condensation inducer 1) | SID160734508 | 1.07 | 10.5 | inactive |
| LOC730338 | SID160773734 | 0.178 | 4.22 | inactive |
| LOC730338 | SID160773735 | 0.129 | 3.87 | inactive |
| LOC730338 | SID160773738 | 0.199 | 4.37 | inactive |
| CTDSPL (CTD small phosphatase like) | SID160727128 | 0.623 | 7.35 | inactive |
| CTDSPL (CTD small phosphatase like) | SID160727135 | 1.8 | 15.6 | inactive |
| CTDSPL (CTD small phosphatase like) | SID160730415 | -0.999 | -4.06 | inactive |
| PANX3 (pannexin 3) | SID160732354 | 0.969 | 9.79 | inactive |
| PANX3 (pannexin 3) | SID160755397 | 0.717 | 8.01 | inactive |
| PANX3 (pannexin 3) | SID160755398 | -0.235 | 1.32 | inactive |
| ZNF860 (zinc finger protein 860) | SID160734388 | -0.221 | 1.42 | inactive |
| ZNF860 (zinc finger protein 860) | SID160764804 | -0.286 | 0.953 | inactive |
| ZNF860 (zinc finger protein 860) | SID160764805 | -0.121 | 2.12 | inactive |
| ZNF860 (zinc finger protein 860) | SID160764806 | 1.85 | 16 | inactive |
| ZNF860 (zinc finger protein 860) | SID160772012 | 0.0763 | 3.5 | inactive |
| ZNF860 (zinc finger protein 860) | SID160772013 | -0.366 | 0.394 | inactive |
| PCDH12 (protocadherin 12) | SID160740522 | 2.49 | 20.5 | inactive |
| PCDH12 (protocadherin 12) | SID160740524 | 0.27 | 4.87 | inactive |
| PCDH12 (protocadherin 12) | SID160740525 | -1.21 | -5.52 | inactive |
| LINC01020 (long independently transcribed non-coding RNA 1020) | SID160764362 | 0.981 | 9.87 | inactive |
| LINC01020 (long independently transcribed non-coding RNA 1020) | SID160764363 | -0.587 | -1.16 | inactive |
| LINC01020 (long independently transcribed non-coding RNA 1020) | SID160764364 | 0.292 | 5.02 | inactive |
| MYLIP (myosin regulatory light chain interacting protein) | SID160739102 | -1.04 | -4.37 | inactive |
| MYLIP (myosin regulatory light chain interacting protein) | SID160739103 | 0.631 | 7.41 | inactive |
| MYLIP (myosin regulatory light chain interacting protein) | SID160739104 | 2.72 | 22.1 | inactive |
| LDHA (lactate dehydrogenase A) | SID160731198 | 3.07 | 24.6 | inactive |
| LDHA (lactate dehydrogenase A) | SID160747939 | 0.175 | 4.2 | inactive |
| LDHA (lactate dehydrogenase A) | SID160748147 | -0.356 | 0.466 | inactive |
| AKIRIN2 (akirin 2) | SID160733581 | 4.9 | 37.4 | inactive |
| AKIRIN2 (akirin 2) | SID160742996 | 5.14 | 39.2 | active |
| AKIRIN2 (akirin 2) | SID160742997 | 7.61 | 56.5 | active |
| LRRC66 (leucine rich repeat containing 66) | SID160764344 | 3.95 | 30.8 | inactive |
| LRRC66 (leucine rich repeat containing 66) | SID160764345 | -0.92 | -3.51 | inactive |
| LRRC66 (leucine rich repeat containing 66) | SID160764347 | 0.492 | 6.43 | inactive |
| MGAT2 | SID160777203 | 0.278 | 4.93 | inactive |
| MGAT2 | SID160777204 | 1.87 | 16.1 | inactive |
| MGAT2 | SID160777205 | 5.34 | 40.5 | active |
| PIP4K2C (phosphatidylinositol-5-phosphate 4-kinase type 2 gamma) | SID160749563 | -0.686 | -1.86 | inactive |
| PIP4K2C (phosphatidylinositol-5-phosphate 4-kinase type 2 gamma) | SID160749564 | -0.374 | 0.335 | inactive |
| PIP4K2C (phosphatidylinositol-5-phosphate 4-kinase type 2 gamma) | SID160749565 | -0.419 | 0.0196 | inactive |
| ELOVL1 (ELOVL fatty acid elongase 1) | SID160748033 | 0.473 | 6.3 | inactive |
| ELOVL1 (ELOVL fatty acid elongase 1) | SID160748034 | -0.382 | 0.281 | inactive |
| ELOVL1 (ELOVL fatty acid elongase 1) | SID160748035 | -1.07 | -4.53 | inactive |

Called active (from the list above):
| target | PubChem SID | G2 robust z-score | G2 cells, % of GMNN control | activity call |
| --- | --- | --- | --- | --- |
| AKIRIN2 (akirin 2) | SID160742996 | 5.14 | 39.2 | active |
| AKIRIN2 (akirin 2) | SID160742997 | 7.61 | 56.5 | active |
| MGAT2 | SID160777205 | 5.34 | 40.5 | active |
